Data as given in PubChem BioAssay AID1508597 (Cure First, 2020)
Shown is an unselected part of the about 2,100 reagents, in one setting of the screen. 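Calls flag viability under 80% in either arm, not effects specific to rucaparib; the reference for percent is not stated.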 Entries without a mark were called inactive. Reagent sequences are not shown. Not stated in the record: the 100% reference.

- Purpose: 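Survival screen with siRNA in ovarian cancer cells derived from patients, with or without rucaparib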 (primary screen)
- Cell system: human ovarian carcinoma lines grown from tumours: OCI-P5x (papillary serous) and OCI-C5x (clear cell)
- Reagent: siRNA pool against human genes, 1.25 pmol siRNA per well
- Time to read-out: 72 h or 96 h, depending on the cell culture
- Challenge: rucaparib 20 µM (about IC30) or vehicle, present until read-out
- Rucaparib or vehicle: Rucaparib
- Cell line: OCI-P5x (serous)
- Detection: 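Luminescent ATP-based viability assay read 72 or 96 h after transfection, depending on culture, given as normalised percent viability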
- Direction: viability, normalised: higher = more viable cells remaining
- Hit rule: 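Active when normalised viability falls below 80 percent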
- Calls: active = viability under 80%; inactive = viability 80% or more

With BBC3 [SID405528020], technical replicate 1, the values are viability, normalised (%) = 77.2 (active).
BBC3 [SID405528020], technical replicate 2 gave viability, normalised (%) = 83.6.
With BBC3 [SID405528020], technical replicate 3, the values are viability, normalised (%) = 90.3.
DNAJC1 [SID405528230], technical replicate 1 gave viability, normalised (%) = 64 (active).
DNAJC1 [SID405528230], technical replicate 2 showed viability, normalised (%) = 80.9.
For DNAJC1 [SID405528230], technical replicate 3 the deposit lists viability, normalised (%) = 69.7 (active).

Records above marked active, once more:
BBC3 [SID405528020], technical replicate 1 — viability, normalised (%): 77.2 (active)
DNAJC1 [SID405528230], technical replicate 1 — viability, normalised (%): 64 (active)
DNAJC1 [SID405528230], technical replicate 3 — viability, normalised (%): 69.7 (active)

Further records follow.
For CDK17 [SID405527512], technical replicate 1, the values are viability, normalised (%) = 134.
CDK17 [SID405527512], technical replicate 2 gave viability, normalised (%) = 94.5.
CDK17 [SID405527512], technical replicate 3 showed viability, normalised (%) = 92.4.
With SMAD3 [SID405527323], technical replicate 1 the deposit lists viability, normalised (%) = 56.8 (active).
SMAD3 [SID405527323], technical replicate 2 gave viability, normalised (%) = 63.5 (active).
SMAD3 [SID405527323], technical replicate 3 gave viability, normalised (%) = 61.7 (active).
